The list shows a part of the results.

Chains of the proteins cited; added tags and fusions are not shown.
UniProt Q0JBA9, entry or part of it: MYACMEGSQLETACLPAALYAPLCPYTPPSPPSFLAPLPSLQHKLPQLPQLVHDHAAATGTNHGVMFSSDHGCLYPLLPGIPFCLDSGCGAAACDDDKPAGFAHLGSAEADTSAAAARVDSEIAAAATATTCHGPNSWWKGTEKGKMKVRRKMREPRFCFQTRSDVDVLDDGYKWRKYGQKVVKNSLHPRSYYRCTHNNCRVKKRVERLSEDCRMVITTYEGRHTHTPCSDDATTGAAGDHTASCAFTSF

This assay deals with OsWRKY34 (Oryza sativa, UniProt Q0JBA9 1-250). Nature of the assay: protein-binding microarray (RPBM); PBS, 2% BSA, 51.3 ng/ul salmon testes DNA, 50 uM zinc acetate, 200 nM TF, 25 C, 1 h; high values mean tight binding. The conditions noted are these: protein: recombinant; tags: N-terminal polyhistidine and DsRed monomer fusion (pET32a); label: CyDye5-dUTP incorporated in the synthesized complementary strand; 3' TTTTT single-stranded linker to array surface; dsDNA, one strand shown. The gist of the method: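 The binding signal for each feature is its fluorescence intensity in arbitrary units. An Axon 4000B scanner was used to read a custom Agilent array that had been made double-stranded with Cy5-dUTP primer extension, blocked with 2% BSA, incubated at 25 °C for 1 h with 200 nM protein in PBS, 2% BSA, salmon testes DNA and 50 µM zinc acetate, and washed. The protein was an N-terminal polyhistidine–DsRed transcription factor fusion from E. coli BL21-CodonPlus, purified on Ni–NTA.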
Consider “ACCGTACGTGTTATTTCTCTCAACCCGGCCGGCCACCTTTCGGAGTCACCTAGTGCAG”, for which the binding signal is 9360 fluorescence intensity (a.u.).

Take “TTCCATGTAAGCTGTGCAATTAGTTTTTTATTTTATCTATCGGAGTCACCTAGTGCAG”: the binding signal was 11100 fluorescence intensity (a.u.).

Consider “TTCTCTCTCTCTGCTCTGCCTCTGTCTTGTTTTGCTTTGCCGGAGTCACCTAGTGCAG”, for which the binding signal was 10300 fluorescence intensity (a.u.).

Regarding “GTTTGAGCGGTCTTTCTCTTCAGAATTTGACAATTGATCACGGAGTCACCTAGTGCAG”, the binding signal was 8120 fluorescence intensity (a.u.).

On to “ACCAGCTTCCATGTTAGTACTACTACTAGCCATCTGATGACGGAGTCACCTAGTGCAG”, for which the binding signal is 8340 fluorescence intensity (a.u.).

On to “ATCTTCACTGGCCTTTACTTTGTGGCGGCTCCAAATTCCGCGGAGTCACCTAGTGCAG”, for which the binding signal is 10800 fluorescence intensity (a.u.).

As to “TCAAACCGCGCCTCACTGCCACCTTCGTTTGCGCACCATGCGGAGTCACCTAGTGCAG”, the binding signal was 9710 fluorescence intensity (a.u.).

For “AATTTGCAGTATATTCCAGCTCTTATTCTGATATGTCCTTCGGAGTCACCTAGTGCAG”, the binding signal is 12500 fluorescence intensity (a.u.).

In the case of “GTTCATCATGCTTGTGCAAACATTAGTTTATCAATGTCCACGGAGTCACCTAGTGCAG”, the binding signal was 9080 fluorescence intensity (a.u.).

Turning to “TCTCGGCCGGTATGGGTGGCGGGGTGTGTTGAGGAGGTGTCGGAGTCACCTAGTGCAG”, the binding signal was 8850 fluorescence intensity (a.u.).

Consider “GGTCTTGGCTGGTGGTCAGTTGGTTGATGTTGCATGTTCACGGAGTCACCTAGTGCAG”, for which the binding signal is 13700 fluorescence intensity (a.u.).

On to “TTCAGCAGCTCCATTTGTTACAACATCCTGTCAAGAATGCCGGAGTCACCTAGTGCAG”, for which the binding signal was 8280 fluorescence intensity (a.u.).

On to “ATTTGTTTTTTTAATGGTACACAGAGTACAATGTATTTTGCGGAGTCACCTAGTGCAG”, for which the binding signal is 8050 fluorescence intensity (a.u.).

Consider “CGCCGCCACCAGCCAATCCGCTGCCGCCACCTCGTCACCGCGGAGTCACCTAGTGCAG”, for which the binding signal is 9300 fluorescence intensity (a.u.).

On to “TTTTTCCATCTCGTTTGCTGTAACTAAGACCCTCCACGCCCGGAGTCACCTAGTGCAG”, for which the binding signal is 8620 fluorescence intensity (a.u.).

In the case of “GGGGAGTTTTGTTGGAAGGTTAAAATTATAAGAGTCAAAACGGAGTCACCTAGTGCAG”, the binding signal was 9420 fluorescence intensity (a.u.).

Regarding “CTTGTCCGTATACATTGTTACACACACCCGTTTTGTTCTTCGGAGTCACCTAGTGCAG”, the binding signal is 11900 fluorescence intensity (a.u.).

For “ATCGCTAACCTTTATGTCATGTCTAGCTAGTGCAATTAGACGGAGTCACCTAGTGCAG”, the binding signal was 10300 fluorescence intensity (a.u.).

Turning to “ATCATCACGACATCTCACTCAATTTCTAGTGATATTTTTTCGGAGTCACCTAGTGCAG”, the binding signal is 8340 fluorescence intensity (a.u.).

Take “CCTTGTGTGCACTTCCCCGCGTAACCGCAGCCACCGTCACCGGAGTCACCTAGTGCAG”: the binding signal is 8680 fluorescence intensity (a.u.).

For the sequence “CCGCATGCTCTGCTCTCTCGCTCGCTCGCCGCCGCCTCCTCGGAGTCACCTAGTGCAG”, the binding signal is 8880 fluorescence intensity (a.u.).

With “ATGACCGGCCACCACCATTGCCACCGGCCGATCTCCTCTTCGGAGTCACCTAGTGCAG”, the binding signal was 9360 fluorescence intensity (a.u.).

For “GGTCTTTGTTTGGGCAGAACGGTTGTATGTGGGCCGGGCCCGGAGTCACCTAGTGCAG”, the binding signal was 8270 fluorescence intensity (a.u.).

Source of the values: article PMC7819943, “Rice protein-binding microarrays: a tool to detect cis-acting elements near promoter regions in rice”.
